# From PubChem BioAssay AID504834 (National Center for Advancing Translational Sciences (NCATS), 2011)
# About 22,000 (6.9%) of roughly 320,000 compounds were called active. Inconclusive means that the source gave no clear call. Such entries were picked first, then a sample of the others. Calls follow the shape of the dose curve; as a rule, active = well fitted inhibition curve with a large enough effect; inconclusive = small, poorly fitted or top-dose-only effect, or another doubt; inactive = no such curve, though single readings can be large or run the other way. A potency beside an inconclusive call is a rough fit, not a confirmed value.
# Experiment: Primary qHTS for delayed death inhibitors of the malarial parasite plastid, 96 hour incubation
# Conditions: P. falciparum luciferase reporter growth; series mostly up to 28.7 µM
# Summary of the method: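 Two-generation exposure (96 h) targets delayed-death phenotype. Reporter parasites carrying integrated firefly luciferase, in red cells at 2% hematocrit and 0.05% parasitemia final, kept at 37 C, 5% CO2; luminescence loss indicates inhibition.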
# Potency is read from the fitted curve at half-maximal effect.
row,SMILES,Potency
1,CCC(=O)Nc1c(S(=O)(=O)c2ccccc2)c2nc3ccccc3nc2n1Cc1ccccc1,"inconclusive: 13.1 µM [inhibitor, single point]"
2,O=C(CNC(=O)c1ccc2ccccc2c1)NCc1ccc(F)cc1,inactive
3,O=C(C(=O)N1CCN(c2ccccc2Cl)CC1)c1c[nH]c2ccccc12,inactive
4,COC(=O)c1ccccc1NC(=O)CNC(=O)c1ccco1,"inconclusive: 20.8 µM [inhibitor, single point]"
5,CCOC(=O)c1ccc(NC(=O)c2nc[nH]c2C(=O)N[C@@H](C)C(=O)OC(C)(C)C)cc1,"inconclusive: 5.22 µM [inhibitor, partial curve, poor fit]"
6,COC(=O)C1=NNC2C(=O)N(C3CCCCC3)C(=O)C12 (configuration not stated),active: 3.29 µM
7,CCC1Oc2ccc(C)cc2N(CC(=O)NCCCN2CCOCC2)C1=O (configuration not stated),"inconclusive: 18.5 µM [inhibitor, single point]"
8,COc1cc(/C=C(\C#N)C(=O)Nc2ccc(C(=O)O)cc2)ccc1OC(=O)c1cccc(F)c1,"inconclusive: 10.4 µM [inhibitor, partial curve, poor fit]"
9,CCOC(=O)C1CCN(S(=O)(=O)c2ccc(Cl)cc2)CC1,inactive
10,Cc1csc(N(C)C(=O)CSc2nnc(COc3ccccc3C)o2)n1,"inconclusive: 7.38 µM [inhibitor, partial curve]"
11,COc1ccc(NC(=O)c2cc(-c3ccco3)nc3ccccc23)cn1,"inconclusive: 18.5 µM [inhibitor, single point]"
12,Cc1c(Cc2ccccc2)c(=O)oc2cc(OCC(=O)N3CCC(C(=O)O)CC3)ccc12,inactive
13,COc1ccc(Cl)cc1N1C(=NC(=O)C2CCCO2)SC2CS(=O)(=O)CC21 (configuration not stated),inactive
14,COCCNC(=O)CN1CCN(Cc2cccc(Cl)c2)C1=O,inactive
15,COc1cc(/C=C(\C#N)C(=O)NCC2CCCO2)ccc1OCC(=O)O (configuration not stated),active: 2.33 µM
16,O=C(O)COc1ccc2c(c1)O/C(=C\c1ccco1)C2=O,inactive
17,CC(=O)O[C@H]1CC[C@@]2(C)C(CCC3C2CC[C@]2(C)OC(=O)CCC32)C1 (some centres not stated),"inconclusive: 18.5 µM [inhibitor, partial curve, poor fit]"
18,Cc1ccc(S(=O)(=O)CC(=O)N2CCCC2)cc1,"inconclusive: 8.28 µM [inhibitor, partial curve]"
19,O=C1CCN(C(=O)Cc2ccccc2[N+](=O)[O-])CC1,inactive
20,C/C(=N\O)c1noc(C)c1C(=O)Nc1nccs1,inactive
21,O=C(NCc1ccc2c(c1)OCO2)C1CCN(S(=O)(=O)N2CCCCC2)CC1,inactive
22,NC(=O)c1ccc(NC(=O)CS(=O)(=O)c2cn(CC(=O)N3CCCC3)c3ccccc23)cc1,"inconclusive: 14.7 µM [inhibitor, partial curve, poor fit]"
23,Cc1sc2c(c1C)C(=O)NC(c1cccc(O)c1)N2 (configuration not stated),"inconclusive: 14.7 µM [inhibitor, partial curve]"
24,CC1CCCCN1S(=O)(=O)c1ccc(S(=O)(=O)N(Cc2ccccc2)Cc2ccco2)cc1 (configuration not stated),active: 10.4 µM

row,SMILES,Potency
1,COCCCNC(=O)C1CCC(CNS(=O)(=O)c2ccc3c(c2)N(C(C)=O)CCO3)CC1 (configuration not stated),"inconclusive: 18.5 µM [inhibitor, single point]"
2,N#Cc1c(NC2CCCCC2)nc(-c2ccco2)c2c1CCCC2,"inconclusive: 7.38 µM [inhibitor, partial curve, poor fit]"
3,CCOc1ccc(/C=C/C(=O)Nc2ccccc2C(F)(F)F)cc1,inactive
4,Cc1cccn2c(=O)c(C=O)c(Nc3ccccc3)nc12,inactive
5,O=C(Nc1cc(Cl)ccc1Cl)C1CC(=O)N(c2ccc(Br)cc2)C1 (configuration not stated),"inconclusive: 2.62 µM [inhibitor, single point]"
6,Cc1ccc(C(C(=O)Nc2ccc3c(c2)OCO3)N(C)C(=O)Cc2c[nH]c3ccccc23)cc1 (configuration not stated),"inconclusive: 18.5 µM [inhibitor, single point]"
7,Cc1ccc(NC(=O)C(=O)NCC2OCCc3ccccc32)cc1 (configuration not stated),inactive
8,COc1ccc(OC)c(CCNC(=O)Cn2nc(C)c3c(C)n(-c4ccc(C)cc4)nc3c2=O)c1,"inconclusive: 8.28 µM [inhibitor, partial curve, poor fit]"
9,Oc1ccccc1N=N/C(=N/Nc1ccccc1O)c1ccccc1,active: 8.28 µM
10,O=C(CNS(=O)(=O)c1ccc(F)c(Cl)c1)NCCc1ccccc1,"inconclusive: 3.7 µM [inhibitor, full curve, poor fit]"
11,COc1cccc(C(C(=O)NC(C)(C)C)N(Cc2ccco2)C(=O)CCC(=O)Nc2cc(C)on2)c1OC (configuration not stated),"inconclusive: 18.5 µM [inhibitor, single point]"
12,CC(=O)c1cn(C)c(=O)[nH]c1=O,inactive
13,CC(=O)Nc1cccc(Oc2nc(-c3ccccn3)nc3ccccc23)c1,"inconclusive: 7.38 µM [inhibitor, partial curve, poor fit]"
14,CCNC(=O)NC(=O)C(C)OC(=O)c1c(C)nn(Cc2ccccc2Cl)c1Cl (configuration not stated),active: 11.7 µM
15,COCCN(C(=O)C1CCCC1)c1c(N)n(Cc2ccccc2)c(=O)[nH]c1=O,inactive
16,COc1cccc(-c2nnc(SCC(=O)Nc3ccc4c(c3)OCCO4)n2Cc2ccco2)c1,"inconclusive: 14.7 µM [inhibitor, partial curve, poor fit]"
17,COc1cc(C2C3C(=O)N(Cc4ccccc4)C(=O)C3ON2c2ccccc2)cc(OC)c1OC (configuration not stated),"inconclusive: 1.65 µM [inhibitor, partial curve, poor fit]"
18,CCOC(=O)N1CCC(NC(=O)c2ccccc2C(=O)O)CC1,inactive
19,Oc1ccc(Cl)cc1N=Nc1ccccc1,"inconclusive: 18.5 µM [inhibitor, single point]"
20,COC(=O)N1CC(c2ccccc2)CC1=O (configuration not stated),inactive
21,COc1ccc(C(C#N)c2nc3ccccc3nc2Cl)cc1 (configuration not stated),"inconclusive: 18.5 µM [inhibitor, single point]"
22,CC(C)c1ccc(CNC(=O)C2CCCN2S(=O)(=O)c2ccccc2)cc1 (configuration not stated),"inconclusive: 10.4 µM [inhibitor, partial curve]"
23,CC1(CC(=O)N/N=C/c2ccc(-c3ccc(Cl)cc3)o2)OCCO1,"inconclusive: 9.28 µM [inhibitor, single point]"
24,COc1ccc(CNC(=S)NC(C)CCc2ccccc2)cc1 (configuration not stated),inactive

row,SMILES,Potency
1,COc1ccc(N=Cc2ccc(-c3ccccc3)o2)cc1,active: 11.7 µM
2,CN(CC(=O)Nc1ccc(Cl)cc1)C(=O)c1ccc(S(=O)(=O)Nc2ccccc2)cc1,"inconclusive: 10.4 µM [inhibitor, single point]"
3,Cc1ccc(NC(=O)C2OCCc3ccccc32)cc1C (configuration not stated),inactive
4,COc1cc(C(=O)Nc2ccc(S(=O)(=O)N3CCCCC3C)cc2)cc(OC)c1OC (configuration not stated),"inconclusive: 11.7 µM [inhibitor, partial curve]"
5,O=C(NCc1ccc2c(c1)OCO2)C(=O)NCC(c1ccco1)N1CCN(c2ccccc2)CC1 (configuration not stated),"inconclusive: 0.329 µM [inhibitor, partial curve, poor fit]"
6,C[C@@H]1CN(C(=O)c2nc3ccc(Cl)cn3c2CNCC[C@@H]2C[C@@H]3C=C[C@H]2C3)C[C@H](C)O1,"inconclusive: 18.5 µM [inhibitor, single point]"
7,CC1C(=O)C(C)C(c2ccc(Br)cc2)NC1c1ccc(Br)cc1 (configuration not stated),active: 3.7 µM
8,COc1ccc(-c2noc(C3CCCN(C(=O)c4ccccc4C)C3)n2)cc1 (configuration not stated),"inconclusive: 0.738 µM [inhibitor, full curve, poor fit]"
9,Cc1ccncc1C(N)=O,inactive
10,O=C(c1cc2cc(F)ccc2[nH]1)N1CCCC(Nc2ccc(F)cc2)C1 (configuration not stated),"inconclusive: 2.08 µM [inhibitor, partial curve, poor fit]"
11,Cn1c(SCC(=O)c2ccccc2)nnc1C1CC1,inactive
12,COc1cccc(OCC(=O)Nc2cc(Cl)ccc2Oc2ccccc2)c1,"inconclusive: 13.1 µM [inhibitor, single point]"
13,CC(=O)N1CCN(Cc2ccc(Cl)nc2)CC1,inactive
14,COc1ccc(OC)c(Cc2nnc(CCC(=O)N3CCN(C4CCCC4)CC3)o2)c1,inactive
15,CCC(C)[C@H](NC(=O)[C@@H]1CSC2c3ccccc3C(=O)N21)C(=O)NC1CCCC1 (some centres not stated),"inconclusive: 11.7 µM [inhibitor, single point]"
16,CCC(=O)Oc1ccc(C/C(=N\O)c2ccc(O)cc2O)o1,"inconclusive: 0.0657 µM [inhibitor, full curve, poor fit]"
17,CCn1c(=O)c(C(=O)Nc2ccccc2F)c(O)c2ccccc21,"inconclusive: 10.4 µM [inhibitor, partial curve, poor fit]"
18,CCOC(=O)N1CCN(C(=O)c2ccc(Cl)c(NC(=O)c3cccs3)c2)CC1,"inconclusive: 11.7 µM [inhibitor, single point]"
19,CC(C)Cn1c(-c2csc3ccccc23)n[nH]c1=S,"inconclusive: 18.5 µM [inhibitor, single point]"
20,Cn1ncc([N+](=O)[O-])c1C(=O)Nc1ccccc1C(=O)O,"inconclusive: 11.7 µM [inhibitor, single point]"
21,O=S(=O)(c1cccc(-c2nnc3n2CCCCC3)c1)N1CCOCC1,inactive
22,COc1ccc(OC)c(/C=N/NC(=O)c2cc3c(OC)cc(OC)cc3[nH]2)c1,"inconclusive: 3.7 µM [inhibitor, full curve]"
23,O=C(COc1cccnc1[N+](=O)[O-])c1c[nH]c2ccccc12,inactive
24,C/C(=N\NC(=O)c1ccc(F)cc1)c1cccc(NC(=O)c2ccco2)c1,"inconclusive: 1.31 µM [inhibitor, single point]"

# A stretch from the list above, for reference:
row,SMILES,Potency
5,O=C(NCc1ccc2c(c1)OCO2)C(=O)NCC(c1ccco1)N1CCN(c2ccccc2)CC1 (configuration not stated),"inconclusive: 0.329 µM [inhibitor, partial curve, poor fit]"
6,C[C@@H]1CN(C(=O)c2nc3ccc(Cl)cn3c2CNCC[C@@H]2C[C@@H]3C=C[C@H]2C3)C[C@H](C)O1,"inconclusive: 18.5 µM [inhibitor, single point]"
7,CC1C(=O)C(C)C(c2ccc(Br)cc2)NC1c1ccc(Br)cc1 (configuration not stated),active: 3.7 µM
8,COc1ccc(-c2noc(C3CCCN(C(=O)c4ccccc4C)C3)n2)cc1 (configuration not stated),"inconclusive: 0.738 µM [inhibitor, full curve, poor fit]"
9,Cc1ccncc1C(N)=O,inactive
10,O=C(c1cc2cc(F)ccc2[nH]1)N1CCCC(Nc2ccc(F)cc2)C1 (configuration not stated),"inconclusive: 2.08 µM [inhibitor, partial curve, poor fit]"
11,Cn1c(SCC(=O)c2ccccc2)nnc1C1CC1,inactive
12,COc1cccc(OCC(=O)Nc2cc(Cl)ccc2Oc2ccccc2)c1,"inconclusive: 13.1 µM [inhibitor, single point]"
13,CC(=O)N1CCN(Cc2ccc(Cl)nc2)CC1,inactive
14,COc1ccc(OC)c(Cc2nnc(CCC(=O)N3CCN(C4CCCC4)CC3)o2)c1,inactive
15,CCC(C)[C@H](NC(=O)[C@@H]1CSC2c3ccccc3C(=O)N21)C(=O)NC1CCCC1 (some centres not stated),"inconclusive: 11.7 µM [inhibitor, single point]"
16,CCC(=O)Oc1ccc(C/C(=N\O)c2ccc(O)cc2O)o1,"inconclusive: 0.0657 µM [inhibitor, full curve, poor fit]"
17,CCn1c(=O)c(C(=O)Nc2ccccc2F)c(O)c2ccccc21,"inconclusive: 10.4 µM [inhibitor, partial curve, poor fit]"
18,CCOC(=O)N1CCN(C(=O)c2ccc(Cl)c(NC(=O)c3cccs3)c2)CC1,"inconclusive: 11.7 µM [inhibitor, single point]"
19,CC(C)Cn1c(-c2csc3ccccc23)n[nH]c1=S,"inconclusive: 18.5 µM [inhibitor, single point]"
20,Cn1ncc([N+](=O)[O-])c1C(=O)Nc1ccccc1C(=O)O,"inconclusive: 11.7 µM [inhibitor, single point]"
21,O=S(=O)(c1cccc(-c2nnc3n2CCCCC3)c1)N1CCOCC1,inactive
22,COc1ccc(OC)c(/C=N/NC(=O)c2cc3c(OC)cc(OC)cc3[nH]2)c1,"inconclusive: 3.7 µM [inhibitor, full curve]"
